According to publication PMC7479279:
Positions count from the first letter of the chain named. No constants are given. Whether binding was seen depends on the method and setting. In cells and extracts the contact can be indirect. Some binding calls cover weakened binding; strength is not graded here. For some assays here: Sequences can lack the tags named with a protein. One block for each binder: values may come before it.

Legend:
[1] = target: T1, Siglec-E (endogenous, mouse bone marrow neutrophils) (mouse (endogenous in bone marrow neutrophils)) (UniProt Q91Y57); experiment: co-IP; endogenous proteins; neutrophils from Tlr4^-/- bone marrow treated with E. coli 25922 (MOI of 100:1) for 5 h at 37°C in vitro; Siglec-E immunoprecipitated with Siglec-E antibodies, blotted for gp91^phox, p47^phox, TLR4 and Siglec-E
T1 sequence: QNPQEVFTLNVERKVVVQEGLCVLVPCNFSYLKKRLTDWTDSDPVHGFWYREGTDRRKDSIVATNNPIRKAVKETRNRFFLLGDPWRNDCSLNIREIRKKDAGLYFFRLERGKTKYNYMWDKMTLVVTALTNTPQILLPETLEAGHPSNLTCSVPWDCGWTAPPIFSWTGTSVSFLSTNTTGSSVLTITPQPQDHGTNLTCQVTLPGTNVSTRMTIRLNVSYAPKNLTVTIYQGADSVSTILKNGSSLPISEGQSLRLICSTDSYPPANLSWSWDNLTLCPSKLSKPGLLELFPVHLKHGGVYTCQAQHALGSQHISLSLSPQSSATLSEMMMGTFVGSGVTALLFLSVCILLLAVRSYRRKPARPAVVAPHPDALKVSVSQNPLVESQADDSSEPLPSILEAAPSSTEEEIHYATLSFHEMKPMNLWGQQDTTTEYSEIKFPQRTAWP

[2] = target: T1, Siglec-E (endogenous, mouse bone marrow neutrophils) (mouse (endogenous in bone marrow neutrophils)); experiment: co-IP; endogenous proteins; neutrophils from bone marrow of WT littermates treated with E. coli 25922 (MOI of 100:1) for 5 h at 37°C in vitro or untreated; Siglec-E immunoprecipitated with Siglec-E antibodies, blotted for gp91^phox, p47^phox and Siglec-E; Siglece^-/- neutrophils alongside
[3] = target: T2, Siglec-E point mutant M-1 (R126D) (mouse) (UniProt Q91Y57); experiment: co-IP; lysates of HEK293T cells co-transfected with wild-type or mutated Siglec-E, gp91^phox and/or FLAG-p47^phox; immunoprecipitation with antibodies for Siglec-E or FLAG, immunoblot
T2 sequence: T1 sequence with R108D

[4] = target: T3, Siglec-E point mutant M-3 (Y455F) (mouse) (UniProt Q91Y57); experiment: as above
T3 sequence: T1 sequence with Y437F

[5] = target: T4, wild-type Siglec-E (transfected in HEK293T cells) (mouse) (UniProt Q91Y57); experiment: as above
T4 sequence: T1 sequence

[6] = target: T5, Siglec-E point mutant M-2 (Y432F) (mouse) (UniProt Q91Y57); experiment: as above
T5 sequence: T1 sequence with Y414F

[7] = target: T6, Siglec-E point mutant M-4 (both Y432F and Y455F) (mouse) (UniProt Q91Y57); experiment: as above
T6 sequence: T1 sequence with Y414F, Y437F

- binding [1]: binds
- binding [2]: binds
B1: p47^phox (endogenous, mouse bone marrow neutrophils) (protein, UniProt Q09014 1-390)
chain: MGDTFIRHIALLGFEKRFIPSQHYVYMFLVKWQDLSEKVVYRKFTEIYEFHKMLKEMFPIEAGEIHTENRVIPHLPAPRWFDGQRAAESRQGTLTEYFNGLMGLPVKISRCPHLLDFFKVRPDDLKLPTDSQAKKPETYLVPKDGKNNVADITGPIILQTYRAIADYEKSSGTEMTVATGDVVDVVEKSESGWWFCQMKTKRGWVPASYLEPLDSPDEAEDPDPNYAGEPYVTIKAYAAVEEDEMSLSEGEAIEVIHKLLDGWWVVRKGDITGYFPSMYLQKAGEEITQAQRQIRGRGAPPRRSTIRNAQSIHQRSRKRLSQDTYRRNSVRFLQQRRRPGRPGPLSTDGTKDNPSTPRVKPQPAVPPRPSSDLILHRCTESTKRKLTSAV

- binding [3]: binds
- binding [4]: binds
- binding [5]: binds
B2: FLAG-p47^phox (transfected in HEK293T cells) (protein, UniProt Q09014 1-390)
chain: B1 chain

- binding [2]: binds
B3: gp91^phox (endogenous, mouse bone marrow neutrophils) (protein, UniProt Q61093 1-570)
chain: MGNWAVNEGLSIFVILVWLGLNVFLFINYYKVYDDGPKYNYTRKLLGSALALARAPAACLNFNCMLILLPVCRNLLSFLRGSSACCSTRIRRQLDRNLTFHKMVAWMIALHTAIHTIAHLFNVEWCVNARVGISDRYSIALSDIGDNENEEYLNFAREKIKNPEGGLYVAVTRLAGITGIVITLCLILIITSSTKTIRRSYFEVFWYTHHLFVIFFIGLAIHGAERIVRGQTAESLEEHNLDICADKIEEWGKIKECPVPKFAGNPPMTWKWIVGPMFLYLCERLVRFWRSQQKVVITKVVTHPFKTIELQMKKKGFKMEVGQYIFVKCPKVSKLEWHPFTLTSAPEEDFFSIHIRIVGDWTEGLFNACGCDKQEFQDAWKLPKIAVDGPFGTASEDVFSYEVVMLVGAGIGVTPFASILKSVWYKYCDNATSLKLKKIYFYWLCRDTHAFEWFADLLQLLETQMQERNNANFLSYNIYLTGWDESQANHFAVHHDEEKDVITGLKQKTLYGRPNWDNEFKTIASEHPNTTIGVFLCGPEALAETLSKQSISNSESGPRGVHFIFNKENF

- binding [6]: binds
- binding [3]: binds
- binding [7]: binds
- binding [4]: binds
- binding [5]: binds
B4: gp91^phox (transfected in HEK293T cells) (protein, UniProt Q61093 1-570)
chain: B3 chain
